Measurements taken from the supplement of paper PMC4604168 (melanoma cell lines).
The other results are listed elsewhere or left out. Many values rest on one well or one pass, so single values are uncertain.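 Imaging used 1,536-well plates; nuclei positive for cleaved PARP by antibody were divided by total DNA-stained nuclei to yield the apoptosis fraction. Doses for screening kept most cells viable, and cell lines differ markedly in resting and induced cleaved-PARP levels.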

Tests used:
Assay in all cases: cleaved PARP positive nuclei fraction relative to DMSO control; melanoma cells; higher = more apoptosis
Conditions in all cases: library dose: low library concentration; 72 h
CBRC034 = tested on: CBRC034 (line from a melanoma biopsy)
COLO792 = tested on: COLO792
COLO800 = tested on: COLO800
COLO829 = tested on: COLO829
G361 = tested on: G361
IPC-298 = tested on: IPC-298
IST-MEL1 = tested on: IST-MEL1
LB2518-MEL = tested on: LB2518-MEL
LOXIMVI = tested on: LOXIMVI
MEL-HO = tested on: MEL-HO

SMILES | cleaved PARP positive nuclei fraction (CBRC034) [%] | cleaved PARP positive nuclei fraction (COLO792) [%] | cleaved PARP positive nuclei fraction (COLO800) [%] | cleaved PARP positive nuclei fraction (COLO829) [%] | cleaved PARP positive nuclei fraction (G361) [%] | cleaved PARP positive nuclei fraction (IPC-298) [%] | cleaved PARP positive nuclei fraction (IST-MEL1) [%] | cleaved PARP positive nuclei fraction (LB2518-MEL) [%] | cleaved PARP positive nuclei fraction (LOXIMVI) [%] | cleaved PARP positive nuclei fraction (MEL-HO) [%]
CN(c1ncccc1CNc1nc(Nc2ccc3c(c2)CC(=O)N3)ncc1C(F)(F)F)S(C)(=O)=O + Cn1c(=O)n(-c2ccc(C(C)(C)C#N)cc2)c2c3cc(-c4cnc5ccccc5c4)ccc3ncc21 [NVP-BEZ235] (first compound 0.08 µM, partner dose 0.004 µM) | 87 | 91.8 | 79.5 | 213 | 114 | 46.1 | 129 | 105 | 187 | 65.3
CCN(CC)CCNC(=O)c1c(C)[nH]c(/C=C2\C(=O)Nc3ccc(F)cc32)c1C [sunitinib] + O=C(O)c1ccc2c(c1)nc(Nc1cccc(Cl)c1)c1ccncc12 [CX4945] (first compound 0.4 µM, partner dose 0.4 µM) | 67.2 | 122 | 82.5 | 100 | 179 | 59.3 | 86.9 | 208 | 129 | 131
COc1ccc(C2=N[C@@H](c3ccc(Cl)cc3)[C@@H](c3ccc(Cl)cc3)N2C(=O)N2CCNC(=O)C2)c(OC(C)C)c1 [Nutlin-3] + O=C(O)c1ccc2c(c1)nc(Nc1cccc(Cl)c1)c1ccncc12 [CX4945] (first compound 0.1 µM, partner dose 0.4 µM) | 143 | 122 | 85.2 | 107 | 90 | 42.7 | 40.7 | 126 | 265 | 70.4
CS(=O)(=O)c1ccc(C(=O)Nc2ccc(Cl)c(-c3ccccn3)c2)c(Cl)c1 [vismodegib] + Clc1ccc(Nc2nnc(Cc3ccncc3)c3ccccc23)cc1 [vatalanib] (first compound 1 µM, partner dose 2 µM) | 88.9 | 105 | 214 | 58.9 | 128 | 28.7 | 134 | 103 | 146 | 174
NC(=O)c1ccc(N(C(N)=O)c2c(F)cccc2F)nc1-c1ccc(F)cc1F + CCCCCCCCc1ccc(CCC(N)(CO)CO)cc1 [fingolimod] (first compound 0.4 µM, partner dose 2 µM) | 138 | 162 | 116 | 66 | 281 | 114 | 68.6 | 109 | 107 | 128
CCCCCCCCc1ccc(CCC(N)(CO)CO)cc1 [fingolimod] + Nc1ncn([C@H]2C[C@H](O)[C@@H](CO)O2)c(=O)n1 [decitabine] (first compound 2 µM, partner dose 0.1 µM) | 38.7 | 90 | 102 | 163 | 63.6 | 182 | 279 | 224 | 108 | 298
CC1(C)CCC(c2ccc(Cl)cc2)=C(CN2CCN(c3ccc(C(=O)NS(=O)(=O)c4ccc(N[C@H](CCN5CCOCC5)CSc5ccccc5)c(S(=O)(=O)C(F)(F)F)c4)cc3)CC2)C1 + CCN(CC)CCNC(=O)c1c(C)[nH]c(/C=C2\C(=O)Nc3ccc(F)cc32)c1C [sunitinib] (first compound 0.4 µM, partner dose 0.4 µM) | 113 | 563 | 33.8 | 102 | 373 | 215 | 88.1 | 100 | 87.4 | 194
Cn1sc(=O)n(Cc2ccccc2)c1=O + CS(=O)(=O)c1ccc(C(=O)Nc2ccc(Cl)c(-c3ccccn3)c2)c(Cl)c1 [vismodegib] (first compound 0.4 µM, partner dose 1 µM) | 90.4 | 145 | 63.3 | 78.9 | 84.3 | 44.5 | 62 | 188 | 39.6 | 74.5
Cn1cnc2c(F)c(Nc3ccc(Br)cc3Cl)c(C(=O)NOCCO)cc21 [selumetinib] + CNC(=O)c1cc(Oc2ccc(NC(=O)Nc3ccc(Cl)c(C(F)(F)F)c3)cc2)ccn1 [sorafenib] (first compound 0.015 µM, partner dose 0.4 µM) | 214 | 81.8 | 12.9 | 69.3 | 110 | 92.8 | 96.4 | 54.7 | 93.8 | 141
CS(=O)(=O)c1ccc(C(=O)Nc2ccc(Cl)c(-c3ccccn3)c2)c(Cl)c1 [vismodegib] + CC(=O)O[C@@]12CO[C@@H]1C[C@H](O)[C@@]1(C)C(=O)[C@H](O)C3=C(C)[C@@H](OC(=O)[C@H](O)[C@@H](NC(=O)OC(C)(C)C)c4ccccc4)C[C@@](O)([C@@H](OC(=O)c4ccccc4)[C@H]21)C3(C)C [Docetaxel] (first compound 1 µM, partner dose 0.0001 µM) | 67.1 | 438 | 45.2 | 242 | 566 | 182 | 173 | 128 | 24 | 95.8
CS(=O)(=O)c1ccc(C(=O)Nc2ccc(Cl)c(-c3ccccn3)c2)c(Cl)c1 [vismodegib] + CS(=O)(=O)CCNCc1ccc(-c2ccc3ncnc(Nc4ccc(OCc5cccc(F)c5)c(Cl)c4)c3c2)o1 [lapatinib] (first compound 1 µM, partner dose 0.8 µM) | 63.5 | 41.3 | 102 | 116 | 139 | 115 | 42.6 | 118 | 106 | 43.4
CCCCCCCCc1ccc(CCC(N)(CO)CO)cc1 [fingolimod] + CO[C@H]1C[C@@H]2CC[C@@H](C)[C@@](O)(O2)C(=O)C(=O)N2CCCC[C@H]2C(=O)O[C@H]([C@H](C)C[C@@H]2CC[C@@H](OCCO)[C@H](OC)C2)CC(=O)[C@H](C)/C=C(\C)[C@@H](O)[C@@H](OC)C(=O)[C@H](C)C[C@H](C)/C=C/C=C/C=C/1C [everolimus] (first compound 2 µM, partner dose 0.02 µM) | 43.5 | 117 | 147 | 258 | 23.2 | 116 | 180 | 129 | 260 | 198
Cn1cnc2c(F)c(Nc3ccc(Br)cc3Cl)c(C(=O)NOCCO)cc21 [selumetinib] + Nc1ncn([C@H]2C[C@H](O)[C@@H](CO)O2)c(=O)n1 [decitabine] (first compound 0.015 µM, partner dose 0.1 µM) | 127 | 223 | 97.3 | 129 | 147 | 152 | 236 | 191 | 111 | 229
CC1(C)CCC(c2ccc(Cl)cc2)=C(CN2CCN(c3ccc(C(=O)NS(=O)(=O)c4ccc(N[C@H](CCN5CCOCC5)CSc5ccccc5)c(S(=O)(=O)C(F)(F)F)c4)cc3)CC2)C1 + Cc1nc(Nc2ncc(C(=O)Nc3c(C)cccc3Cl)s2)cc(N2CCN(CCO)CC2)n1 [dasatanib] (first compound 0.4 µM, partner dose 0.004 µM) | 273 | 755 | 67.2 | 125 | 151 | 410 | 60 | 252 | 372 | 126
CCCCCCCCc1ccc(CCC(N)(CO)CO)cc1 [fingolimod] + CS(=O)(=O)CCNCc1ccc(-c2ccc3ncnc(Nc4ccc(OCc5cccc(F)c5)c(Cl)c4)c3c2)o1 [lapatinib] (first compound 2 µM, partner dose 0.8 µM) | 126 | 147 | 159 | 145 | 61.2 | 58.7 | 56.8 | 102 | 108 | 107
C[C@]1(O)C[C@@H](c2nc(-c3ccc4ccc(-c5ccccc5)nc4c3)c3c(N)nccn32)C1 + Nc1cccc2c1CN(C1CCC(=O)NC1=O)C2=O [lenalidomide] (first compound 0.4 µM, partner dose 1 µM) | 67.2 | 110 | 30.2 | 144 | 145 | 92.9 | 454 | 107 | 28.3 | 51
CCN(CC)CCNC(=O)c1c(C)[nH]c(/C=C2\C(=O)Nc3ccc(F)cc32)c1C [sunitinib] + Cn1nnc2c(C(N)=O)ncn2c1=O [temozolomide] (first compound 0.4 µM, partner dose 2 µM) | 38.5 | 45.9 | 75 | 115 | 157 | 88.4 | 323 | 45.7 | 47.4 | 115
COc1ccc(C2=N[C@@H](c3ccc(Cl)cc3)[C@@H](c3ccc(Cl)cc3)N2C(=O)N2CCNC(=O)C2)c(OC(C)C)c1 [Nutlin-3] + CC(C)C[C@H](NC(=O)[C@H](Cc1ccccc1)NC(=O)c1cnccn1)B(O)O [Bortezomib] (first compound 0.1 µM, partner dose 0.001 µM) | 117 | 92.7 | 193 | 128 | 1090 | 95.9 | 136 | 209 | 140 | 40.3
CCN(CC)CCNC(=O)c1c(C)[nH]c(/C=C2\C(=O)Nc3ccc(F)cc32)c1C [sunitinib] + Cc1cc(Nc2cc(N3CCN(C)CC3)nc(/C=C/c3ccccc3)n2)n[nH]1 [ENMD2076] (first compound 0.4 µM, partner dose 0.04 µM) | 111 | 98.2 | 71.1 | 86.1 | 98.3 | 82.2 | 39.5 | 95.8 | 251 | 38.2
C[C@]1(O)C[C@@H](c2nc(-c3ccc4ccc(-c5ccccc5)nc4c3)c3c(N)nccn32)C1 + CS(=O)(=O)CCNCc1ccc(-c2ccc3ncnc(Nc4ccc(OCc5cccc(F)c5)c(Cl)c4)c3c2)o1 [lapatinib] (first compound 0.4 µM, partner dose 0.8 µM) | 91.7 | 118 | 109 | 152 | 119 | 79.5 | 118 | 46.9 | 128 | 169

Some values from the entries so far:
CCCCCCCCc1ccc(CCC(N)(CO)CO)cc1 [fingolimod] + Nc1ncn([C@H]2C[C@H](O)[C@@H](CO)O2)c(=O)n1 [decitabine] (first compound 2 µM, partner dose 0.1 µM) | cleaved PARP positive nuclei fraction (LB2518-MEL) [%]: 224
CC1(C)CCC(c2ccc(Cl)cc2)=C(CN2CCN(c3ccc(C(=O)NS(=O)(=O)c4ccc(N[C@H](CCN5CCOCC5)CSc5ccccc5)c(S(=O)(=O)C(F)(F)F)c4)cc3)CC2)C1 + CCN(CC)CCNC(=O)c1c(C)[nH]c(/C=C2\C(=O)Nc3ccc(F)cc32)c1C [sunitinib] (first compound 0.4 µM, partner dose 0.4 µM) | cleaved PARP positive nuclei fraction (LOXIMVI) [%]: 87.4
